# Screening data

The results are deposited in PubChem (AID504749; NCATS, 2011).

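Malaria parasite (P. falciparum) lines kept in red blood cells; parasite DNA is measured by SYBR Green fluorescence after lysis, 72 h after compound addition. Each compound was titrated across a series from about 0.000037 to 29 µM. The number is the fitted AC50, the concentration giving a half-maximal change in signal; a lower value means higher potency, whether the curve shows a decrease or an increase. Calls follow the curve class and fit quality: every row here is inconclusive, covering signal-raising curves and weak, poorly fitted, partial or highest-dose-only inhibition curves.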

Values are in µM. Every entry below has the call inconclusive. Only part of the assay is shown, chiefly results filed as inconclusive. Potencies fitted to partial, single-point or poorly fitting curves are rough.

SMILES,setting,potency (µM),remark
C=C1CC[C@H](O)C/C1=C/C=C1\CCC[C@]2(C)[C@@H]([C@H](C)CCCC(C)C)CC[C@@H]12,CP247,10,"inhibitor, single point"
C=C1CC[C@H](O)C/C1=C/C=C1\CCC[C@]2(C)[C@@H]([C@H](C)CCCC(C)C)CC[C@@H]12,3D7,17.78,"inhibitor, single point"
C=C1CC[C@H](O)C/C1=C/C=C1\CCC[C@]2(C)[C@@H]([C@H](C)CCCC(C)C)CC[C@@H]12,CP286,17.78,"inhibitor, single point"
C=C1CC[C@H](O)C/C1=C/C=C1\CCC[C@]2(C)[C@@H]([C@H](C)CCCC(C)C)CC[C@@H]12,CP237,11.22,"inhibitor, single point"
C=C1CC[C@H](O)C/C1=C/C=C1\CCC[C@]2(C)[C@@H]([C@H](C)CCCC(C)C)CC[C@@H]12,CP217,17.78,"inhibitor, single point"
C=C1CC[C@H](O)C/C1=C/C=C1\CCC[C@]2(C)[C@@H]([C@H](C)CCCC(C)C)CC[C@@H]12,PC15,12.59,"inhibitor, single point"
C=C1CC[C@H](O)C/C1=C/C=C1\CCC[C@]2(C)[C@@H]([C@H](C)CCCC(C)C)CC[C@@H]12,CP265,7.08,"inhibitor, partial curve"
C=C1CC[C@H](O)C/C1=C/C=C1\CCC[C@]2(C)[C@@H]([C@H](C)CCCC(C)C)CC[C@@H]12,TAB165,17.78,"inhibitor, single point"
C=C1CC[C@H](O)C/C1=C/C=C1\CCC[C@]2(C)[C@@H]([C@H](C)CCCC(C)C)CC[C@@H]12,DIV14,10.69,"inhibitor, partial curve, poor fit"
C=C1CC[C@H](O)C/C1=C/C=C1\CCC[C@]2(C)[C@@H]([C@H](C)CCCC(C)C)CC[C@@H]12,CP250,10,"inhibitor, single point"
C=C1CC[C@H](O)C/C1=C/C=C1\CCC[C@]2(C)[C@@H]([C@H](C)CCCC(C)C)CC[C@@H]12,TAB109,10,"inhibitor, single point"
C=C1CC[C@H](O)C/C1=C/C=C1\CCC[C@]2(C)[C@@H]([C@H](C)CCCC(C)C)CC[C@@H]12,ATS189,17.78,"inhibitor, single point"
O=[N+]([O-])c1cc([As](=O)(O)O)ccc1O,CP268,6.424,"inhibitor, single point"
O=[N+]([O-])c1cc([As](=O)(O)O)ccc1O,CP201,4.548,"inhibitor, partial curve"
O=[N+]([O-])c1cc([As](=O)(O)O)ccc1O,CP262,4.548,"inhibitor, single point"
O=[N+]([O-])c1cc([As](=O)(O)O)ccc1O,CP247,5.012,"inhibitor, single point"
O=[N+]([O-])c1cc([As](=O)(O)O)ccc1O,ATS189,3.548,"inhibitor, single point"
O=[N+]([O-])c1cc([As](=O)(O)O)ccc1O,CP211,8.087,"inhibitor, single point"
O=[N+]([O-])c1cc([As](=O)(O)O)ccc1O,P94_40,5.623,"inhibitor, single point"
O=[N+]([O-])c1cc([As](=O)(O)O)ccc1O,ATS95,4.467,"inhibitor, single point"
O=[N+]([O-])c1cc([As](=O)(O)O)ccc1O,DIV17,5.103,"inhibitor, single point"
O=[N+]([O-])c1cc([As](=O)(O)O)ccc1O,CP325,7.208,"inhibitor, single point"
O=[N+]([O-])c1cc([As](=O)(O)O)ccc1O,CP194,5.103,"inhibitor, single point"
O=[N+]([O-])c1cc([As](=O)(O)O)ccc1O,PC49,6.31,"inhibitor, single point"
O=[N+]([O-])c1cc([As](=O)(O)O)ccc1O,CP265,5.012,"inhibitor, single point"
O=[N+]([O-])c1cc([As](=O)(O)O)ccc1O,CP266,9.074,"inhibitor, single point"
O=[N+]([O-])c1cc([As](=O)(O)O)ccc1O,PC15,7.08,"inhibitor, single point"
O=[N+]([O-])c1cc([As](=O)(O)O)ccc1O,CP286,7.08,"inhibitor, single point"
O=[N+]([O-])c1cc([As](=O)(O)O)ccc1O,CP329,8.087,"inhibitor, single point"
O=[N+]([O-])c1cc([As](=O)(O)O)ccc1O,CP269,6.424,"inhibitor, single point"
O=[N+]([O-])c1cc([As](=O)(O)O)ccc1O,CP192,7.208,"inhibitor, partial curve, poor fit"
O=[N+]([O-])c1cc([As](=O)(O)O)ccc1O,C2A,7.943,"inhibitor, single point"
O=[N+]([O-])c1cc([As](=O)(O)O)ccc1O,CP215,5.726,"inhibitor, single point"
O=[N+]([O-])c1cc([As](=O)(O)O)ccc1O,CP203,8.087,"inhibitor, single point"
O=[N+]([O-])c1cc([As](=O)(O)O)ccc1O,PAD,10,"inhibitor, single point"
O=[N+]([O-])c1cc([As](=O)(O)O)ccc1O,DIV14,6.424,"inhibitor, partial curve"
O=[N+]([O-])c1cc([As](=O)(O)O)ccc1O,CP256,3.548,"inhibitor, single point"
O=[N+]([O-])c1cc([As](=O)(O)O)ccc1O,PC26,6.424,"inhibitor, single point"
O=[N+]([O-])c1cc([As](=O)(O)O)ccc1O,CP238,3.981,"inhibitor, single point"
O=[N+]([O-])c1cc([As](=O)(O)O)ccc1O,CP305,6.424,"inhibitor, single point"
O=[N+]([O-])c1cc([As](=O)(O)O)ccc1O,CP297,8.087,"inhibitor, partial curve, poor fit"

5 of the entries, repeated:

{"smiles": "O=[N+]([O-])c1cc([As](=O)(O)O)ccc1O", "setting": "CP201", "potency (µM)": "4.548", "remark": "inhibitor, partial curve"}
{"smiles": "O=[N+]([O-])c1cc([As](=O)(O)O)ccc1O", "setting": "P94_40", "potency (µM)": "5.623", "remark": "inhibitor, single point"}
{"smiles": "O=[N+]([O-])c1cc([As](=O)(O)O)ccc1O", "setting": "CP325", "potency (µM)": "7.208", "remark": "inhibitor, single point"}
{"smiles": "C=C1CC[C@H](O)C/C1=C/C=C1\\CCC[C@]2(C)[C@@H]([C@H](C)CCCC(C)C)CC[C@@H]12", "setting": "CP265", "potency (µM)": "7.08", "remark": "inhibitor, partial curve"}
{"smiles": "O=[N+]([O-])c1cc([As](=O)(O)O)ccc1O", "setting": "CP192", "potency (µM)": "7.208", "remark": "inhibitor, partial curve, poor fit"}